From PubChem BioAssay AID2685 (National Center for Advancing Translational Sciences (NCATS), 2010)
The list shows a part of the results. The main result of the screen is listed elsewhere. These columns were measured beside it and carry no call. The list favours compounds with an active or inconclusive main result. The note in brackets gives the kind of curve behind each potency; many fits are weak.

Experiment: qHTS Assay for Lipid Storage Modulators in Drosophila S3 Cells;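 on cell number change: cells counted by Cell Tracker Red CMTPX staining in the red channel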
Conditions: BODIPY lipid droplet fluorescence, 18-24 h; for cell number change: measured here: cell count max response, cells fed with added oleic acid
How it was run: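 Drosophila S3 cells got compounds at several concentrations plus oleic acid (400 uM solution). Laser-scanning cytometry with 488 nm excitation read lipid droplets at 500-530 nm and cells at 575-640 nm. Percent activity was relative to 20 uM Triacsin C.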

[1] = measured here: lipid fluorescence (Fed channel) AC50, cells fed with added oleic acid
[2] = measured here: cell number channel AC50, cells fed with added oleic acid

Nc1c(C(=O)CSc2ncccn2)c(=O)[nH]c(=O)n1C1CC1
cell number change: -19.8% | AC50 [1]: 2.31 µM [falling, full curve, poor fit]

CN(C)c1ccc(NC(=O)CSc2nnc(-c3cccs3)n2Cc2ccco2)cc1
AC50 [2]: 1.84 µM [rising, partial curve] | AC50 [1]: 2.31 µM [rising, partial curve]

CCCn1c(=O)c2ccccc2n2c(SCc3nc4ccccc4s3)nnc12
cell number change: -1.69% | AC50 [1]: 0.461 µM [rising, full curve]

COCCCNC(=O)Cn1cc(/C=C(\C#N)C(=O)NC2CCCC2)c2ccccc21
cell number change: 2.55% | AC50 [1]: 29.1 µM [falling, single point]

CC(C)CC1NC(=O)N(CC(=O)N2CCN(S(=O)(=O)c3ccc4ccccc4c3)CC2)C1=O (stereo unspecified)
cell number change: 42.6%

O=C(CN1C(=O)/C(=C/c2ccc(C(F)(F)F)cc2)Sc2ccccc21)NCCCN1CCOCC1
cell number change: -4.28% | AC50 [1]: 1.64 µM [rising, partial curve]

Cc1ccccc1C(=O)c1c[nH]c(C(=O)NCCCn2ccnc2)c1
cell number change: 31.4% | AC50 [2]: 32.6 µM [rising, single point]

COc1ccc(-c2noc(CCC(=O)NC3CCN(Cc4ccccc4)CC3)n2)cc1
cell number change: -16.6% | AC50 [1]: 29.1 µM [falling, single point]

c1ccc(-c2cc(-c3nnc4sc(-c5ccccn5)nn34)[nH]n2)cc1
cell number change: -31.8% | AC50 [2]: 6.51 µM [falling, partial curve] | AC50 [1]: 16.4 µM [falling, single point]

CC(C)n1nnnc1SCC(=O)N1CCOCC1
cell number change: -80.8% | AC50 [2]: 25.9 µM [falling, partial curve] | AC50 [1]: 3.26 µM [falling, full curve]

O=C(COc1ccccc1Br)c1ccc(O)cc1O
cell number change: -17.5% | AC50 [1]: 6.51 µM [rising, single point]

CC(=O)c1c(C)[nH]c(C(=O)COC(=O)CNS(=O)(=O)c2ccccc2)c1C
cell number change: 11.5% | AC50 [1]: 18.4 µM [rising, single point]

COc1ccc(CN(C(=O)COc2ccccc2)c2ccccc2C(=O)O)cc1
cell number change: -24.1% | AC50 [2]: 2.31 µM [falling, partial curve, poor fit]

Cc1cc(F)ccc1S(=O)(=O)N1CCCOC1CNC(=O)C(=O)NCCN1CCOCC1 (stereo unspecified)
cell number change: 10.4% | AC50 [1]: 23.1 µM [rising, partial curve]

Cc1ccc(S(=O)(=O)/N=C(/Nc2cccc(O)c2)c2ccccc2)cc1
cell number change: -11.8%

CCCC(=O)N1CCc2cc(OC)c(OC)cc2C1COc1ccccc1OC (stereo unspecified)
cell number change: -48.9% | AC50 [2]: 10.3 µM [falling, partial curve] | AC50 [1]: 11.6 µM [falling, partial curve]

COc1cccc(CN(C)CC(=O)Nc2ccccc2N2CCOCC2)c1OC
cell number change: -20.9% | AC50 [1]: 7.31 µM [falling, single point]

Cc1cccc(NC(=O)CN2C(=O)S/C(=C\c3ccccn3)C2=O)c1
cell number change: -45.5%

O=C(Nc1ccc2c(c1)OCCO2)c1ccncc1
cell number change: 3.77%

CC1(C)OC(=CC=Nc2ccc(Cl)cc2)OC1(C)C
cell number change: -13.8% | AC50 [1]: 23.1 µM [falling, partial curve, poor fit]

O=C(CC1CCCCC1)N1CCN(c2ccccn2)CC1
cell number change: 10.7% | AC50 [1]: 1.16 µM [rising, partial curve]

Cc1cccc(CNS(=O)(=O)c2ccc(-c3ccc(=O)[nH]n3)s2)c1
cell number change: -16.7% | AC50 [1]: 0.0231 µM [rising, full curve]

O=C(CCC(=O)c1ccc(Cl)s1)Nc1ncccc1O
cell number change: -16.2% | AC50 [1]: 2.06 µM [rising, full curve]

COc1ccc2c(c1OC)C(=O)OC2N1C(=O)CC[C@H]1C(=O)Nc1ccc(F)cc1F (stereo partly specified)
cell number change: 2.91%

NC(=O)N/N=C/c1ccc(-c2ccc(S(=O)(=O)Nc3ncccn3)cc2)o1
cell number change: -10%

O=C(COC(=O)C1(c2ccccc2F)CCCC1)NCc1ccc2c(c1)OCO2
cell number change: -32.8% | AC50 [2]: 29.1 µM [falling, single point] | AC50 [1]: 25.9 µM [falling, single point]

FC(F)(F)c1cccc(-c2ccc(-c3csnn3)o2)c1
cell number change: -31.4% | AC50 [2]: 16.4 µM [falling, partial curve, poor fit]

C=CCSc1nc(-c2ccccc2)c2cc(Cl)ccc2n1
AC50 [2]: 0.92 µM [rising, partial curve] | AC50 [1]: 29.1 µM [rising, single point]

C1CCCC(NC2=NCCO2)CCC1
cell number change: -5.88% | AC50 [1]: 1.46 µM [falling, full curve, poor fit]

O=C(NC(=S)N1CCCC1)c1ccc(Cl)cc1
cell number change: -14.6% | AC50 [1]: 16.4 µM [falling, single point]

CCOc1ccc(-c2c(C(=O)N/N=C/c3ccoc3)nnn2-c2nonc2N)cc1
cell number change: -11.3%

CSc1ccc(CNCCN2CCOCC2)cc1
cell number change: -3.08%

CN(C)CCCN(CCCN(C)C)C(=S)Nc1ccc(S(=O)(=O)N2CCOCC2)cc1
cell number change: 4.44% | AC50 [2]: 0.00461 µM [rising, full curve, poor fit]

Cc1ccc(N(C)C(=O)CCS(=O)(=O)c2ccc3c(c2)oc(=O)n3C)cc1
cell number change: -8.02% | AC50 [1]: 7.31 µM [falling, partial curve]

O=C(/C=C/c1ccc(Cl)cc1Cl)OCC(=O)N1CCCC1
cell number change: 16.2% | AC50 [1]: 20.6 µM [rising, partial curve, poor fit]

c1ccc(Nc2nc(N3CCOCC3)c3ccccc3n2)cc1
cell number change: 21.9% | AC50 [1]: 29.1 µM [rising, single point]

CC(C)c1ccc(NC(=O)C2CCC(CNC(=O)[C@@H]3Cc4ccccc4CN3)CC2)cc1 (stereo partly specified)
cell number change: -11.5% | AC50 [1]: 1.03 µM [rising, full curve]

CC(C)NC(=S)NN(c1ccccc1)c1ccccc1
cell number change: 51.7% | AC50 [2]: 8.2 µM [rising, partial curve] | AC50 [1]: 6.51 µM [rising, single point]

Cc1ccc(C(C)(C)C)c(SCC(=O)Nc2nnc(C)s2)c1
cell number change: 18%

C=CCn1c(=O)c(C(=O)NCc2ccccc2)c(O)c2ccccc21
cell number change: 1.82%

O=C1OCCC1Sc1nnc(-c2ccccc2Cl)n1Cc1ccccc1 (stereo unspecified)
AC50 [2]: 0.517 µM [rising, single point]
